These are yes or no findings as the source states them, for the method shown. Binding seen in cells or lysates may run through a third protein. A result given as binding can be weak or reduced; the word gives no strength.
Target: GST-dMi-2 ATPase domain (Drosophila)
Experiment: pull-down; 2 ug GST fusion protein on glutathione beads; 35S-labelled in vitro translated protein in GST pulldown buffer (25 mM Hepes pH 7.6, 150 mM NaCl, 12.5 mM MgCl2, 0.1% NP-40, 0.1 mM DTT), 2 h at 4 °C; autoradiography; only the target purified

- binding: binds
B1: 35S-labelled EcR, in vitro translated (receptor, UniProt P34021 1-878)
chain: MKRRWSNNGGFMRLPEESSSEVTSSSNGLVLPSGVNMSPSSLDSHDYCDQDLWLCGNESGSFGGSNGHGLSQQQQSVITLAMHGCSSTLPAQTTIIPINGNANGNGGSTNGQYVPGATNLGALANGMLNGGFNGMQQQIQNGHGLINSTTPSTPTTPLHLQQNLGGAGGGGIGGMGILHHANGTPNGLIGVVGGGGGVGLGVGGGGVGGLGMQHTPRSDSVNSISSGRDDLSPSSSLNGYSANESCDAKKSKKGPAPRVQEELCLVCGDRASGYHYNALTCEGCKGFFRRSVTKSAVYCCKFGRACEMDMYMRRKCQECRLKKCLAVGMRPECVVPENQCAMKRREKKAQKEKDKMTTSPSSQHGGNGSLASGGGQDFVKKEILDLMTCEPPQHATIPLLPDEILAKCQARNIPSLTYNQLAVIYKLIWYQDGYEQPSEEDLRRIMSQPDENESQTDVSFRHITEITILTVQLIVEFAKGLPAFTKIPQEDQITLLKACSSEVMMLRMARRYDHSSDSIFFANNRSYTRDSYKMAGMADNIEDLLHFCRQMFSMKVDNVEYALLTAIVIFSDRPGLEKAQLVEAIQSYYIDTLRIYILNRHCGDSMSLVFYAKLLSILTELRTLGNQNAEMCFSLKLKNRKLPKFLEEIWDVHAIPPSVQSHLQITQEENERLERAERMRASVGGAITAGIDCDSASTSAAAAAAQHQPQPQPQPQPSSLTQNDSQHQTQPQLQPQLPPQLQGQLQPQLQPQLQTQLQPQIQPQPQLLPVSAPVPASVTAPGSLSAVSTSSEYMGGSAAIGPITPATTSSITAAVTASSTTSAVPMGNGVGVGVGVGGNVSMYANAQTAMALMGVALHSHQEQLIGGVAVKSEHSTTA
modifications: 35S-methionine labelled

Reference: paper PMC5382322
